Values from PubChem BioAssay AID504764 (Drosophila RNAi Screening Center, 2011).
In all, the deposit lists about 22,000 reagents; shown is an unselected part of those with a known target gene and a result. In the full data, 403 (1.9%) were called active. 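Unnormalised raw counts per well; ratio z-scores behind the hit calls and whether each hit raises or lowers signal are not deposited.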 Not stated in the record: the amount of reagent.

Purpose: 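Genome-wide screen for regulators of Notch-driven gene expression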 (primary screen)
Cell system: Drosophila Kc167 cells
Reagents: long dsRNA against Drosophila genes
Time to read-out: about 5 days (4 days dsRNA, then 24 h after transfection)
Treatment: transfection of constitutively active membrane-tethered Notch lacking the extracellular domain, read 24 h later
Measured: 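Firefly luciferase from an E(spl)m3 reporter with active Notch, plus control-promoter and uninduced reporter wells for normalisation; unnormalised counts, duplicate wells a and b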
Reading the numbers: induced reporter light, run 1, well a and induced reporter light, run 1, well b: higher = more light from the Notch target reporter with active Notch; control promoter light, run 1, well a and control promoter light, run 1, well b: higher = more light from the viral control promoter (cell number, transfection, viability); uninduced reporter light, run 1, well a: higher = more light from the Notch target reporter without active Notch
Hit rule: 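Hit if the duplicate-averaged log2 ratio of induced to control-promoter light gives a plate-wise z beyond ±2, or induced to uninduced beyond ±1.8; weak-control or discordant-duplicate wells dropped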
Calls: active = modifier hit (raised or lowered Notch signal); inactive = not a hit

target gene,DRSC id,"induced reporter light, run 1, well a","induced reporter light, run 1, well b","control promoter light, run 1, well a","control promoter light, run 1, well b","uninduced reporter light, run 1, well a",activity call
INPP5E (GeneID 39404),DRSC09723,1.66e5,1.18e5,2.20e5,2.24e5,10280,inactive
CG34183 (GeneID 5740752),DRSC01099,1.75e5,1.57e5,2.30e5,1.89e5,11475,inactive
Phk-3 (GeneID 37997),DRSC04547,1.61e5,1.91e5,1.57e5,1.47e5,13295,inactive
spn-A (GeneID 43577),DRSC16812,1.14e5,1.01e5,1.75e5,1.74e5,8795,inactive
Mp (GeneID 38769),DRSC10193,1.19e5,1.03e5,70910,25060,9420,inactive
Mp (GeneID 38769),DRSC11029,2.20e5,1.69e5,2.29e5,2.51e5,13090,inactive
Mp (GeneID 38769),DRSC11030,2.66e5,2.48e5,4.02e5,3.61e5,14078,inactive
GstE10 (GeneID 37105),DRSC06671,73725,70750,96655,91485,6465,inactive
Snap24 (GeneID 41193),DRSC16864,49455,51480,47840,51015,2960,inactive
mRpL52 (GeneID 35711),DRSC06585,1.41e5,1.45e5,1.68e5,1.83e5,13570,inactive
CG31055 (GeneID 318574),DRSC13832,1.59e5,1.50e5,1.93e5,1.52e5,14740,inactive
gcm2 (GeneID 34280),DRSC03538,1.16e5,1.55e5,72425,68625,16905,inactive
Polr3E (GeneID 40325),DRSC11880,1.16e5,1.03e5,82615,90055,6955,inactive
CG15601 (GeneID 32509),DRSC19670,94860,91615,78335,68050,10615,inactive
CG3505 (GeneID 41777),DRSC15489,1.11e5,95920,83165,58290,9365,inactive
mtg (GeneID 40970),DRSC16256,40415,45975,37145,43800,3105,inactive
fru (GeneID 42226),DRSC16951,16815,16680,20420,21325,5665,inactive
fru (GeneID 42226),DRSC16952,2.19e5,2.14e5,2.18e5,2.66e5,14388,inactive
fru (GeneID 42226),DRSC16953,2.05e5,1.71e5,1.80e5,1.66e5,12355,inactive
fru (GeneID 42226),DRSC21600,,,,,,inactive
SkpC (GeneID 32996),DRSC20375,77435,97990,74975,1.03e5,9745,inactive
Cpr64Aa (GeneID 38508),DRSC08460,75570,70760,1.08e5,88100,4505,inactive
Spn28B (GeneID 34035),DRSC02982,2.14e5,1.83e5,2.33e5,1.79e5,9920,inactive
CG4983 (GeneID 34585),DRSC02799,2.20e5,2.43e5,2.07e5,1.89e5,16180,inactive
CG32107 (GeneID 317856),DRSC09221,1.95e5,1.72e5,2.63e5,2.48e5,17405,inactive
Dph3 (GeneID 41352),DRSC14923,87020,83690,86565,58755,2970,inactive
Burs (GeneID 42560),DRSC14595,1.30e5,1.31e5,1.63e5,1.67e5,8130,inactive
CG12054 (GeneID 43694),DRSC14467,9850,10405,12525,14190,3910,inactive
osk (GeneID 41066),DRSC17023,1.30e5,1.20e5,96345,79705,10625,inactive
Tsp5D (GeneID 31540),DRSC18380,1.31e5,1.39e5,2.00e5,2.90e5,9670,inactive
ppk5 (GeneID 2768987),DRSC11492,2.56e5,2.24e5,2.87e5,2.68e5,20995,inactive
Usp20-33 (GeneID 36580),DRSC07196,1.37e5,1.74e5,1.45e5,1.48e5,14450,inactive
CG4210 (GeneID 41832),DRSC15551,1.97e5,1.84e5,1.80e5,1.85e5,15780,inactive
stmA (GeneID 35865),DRSC05120,50010,78150,85385,1.04e5,3120,inactive
stmA (GeneID 35865),DRSC07593,1.21e5,89365,85495,84900,7842,inactive
Abd-B (GeneID 47763),DRSC14098,2.87e5,2.04e5,2.20e5,2.31e5,16350,inactive
Abd-B (GeneID 47763),DRSC14337,1.69e5,1.99e5,2.25e5,2.33e5,14570,inactive
CG2712 (GeneID 31267),DRSC18589,2.01e5,1.87e5,2.22e5,2.15e5,12090,inactive
CG14839 (GeneID 41736),DRSC14963,2.22e5,2.19e5,2.48e5,2.12e5,17495,inactive
CG34165 (GeneID 5740685),DRSC01970,17450,17870,21675,15085,4915,inactive
Cog8 (GeneID 34571),DRSC02961,2.20e5,2.01e5,1.95e5,2.27e5,15670,inactive
gukh (GeneID 53563),DRSC14768,2.90e5,2.66e5,3.12e5,2.83e5,17620,inactive
gukh (GeneID 53563),DRSC15806,1.97e5,1.62e5,1.86e5,1.86e5,12332,inactive
gukh (GeneID 53563),DRSC15944,1.82e5,1.80e5,2.19e5,2.45e5,14032,inactive
Syx18 (GeneID 42933),DRSC14628,1.81e5,2.04e5,2.03e5,1.98e5,16735,inactive
Rab9 (GeneID 35221),DRSC03281,49095,31975,41225,45400,2660,inactive
Helz (GeneID 39613),DRSC11072,87735,1.08e5,71270,77750,7420,inactive
CG10405 (GeneID 41996),DRSC14238,2.13e5,2.13e5,2.25e5,2.16e5,19520,inactive
trbl (GeneID 43999),DRSC11901,1.96e5,1.17e5,1.42e5,1.59e5,9040,inactive
Tep3 (GeneID 34045),DRSC03452,1.48e5,1.82e5,2.11e5,2.23e5,8965,inactive

Entries above whose target name starts with F or f (4):
target gene,DRSC id,"induced reporter light, run 1, well a","induced reporter light, run 1, well b","control promoter light, run 1, well a","control promoter light, run 1, well b","uninduced reporter light, run 1, well a",activity call
fru (GeneID 42226),DRSC16951,16815,16680,20420,21325,5665,inactive
fru (GeneID 42226),DRSC16952,2.19e5,2.14e5,2.18e5,2.66e5,14388,inactive
fru (GeneID 42226),DRSC16953,2.05e5,1.71e5,1.80e5,1.66e5,12355,inactive
fru (GeneID 42226),DRSC21600,,,,,,inactive
